For 1 molecule, binding results are on record in paper PMC12995475.

No constants are given. Whether binding was seen depends on the method and setting. Binding seen in cells or lysates may run through a third protein. Tags and fused reporters may be left off the sequences shown.

The assay deals with T1, Biotin-histidine(His)-tagged R1 (UniProt P23921).
T1 sequence (chain, biotin): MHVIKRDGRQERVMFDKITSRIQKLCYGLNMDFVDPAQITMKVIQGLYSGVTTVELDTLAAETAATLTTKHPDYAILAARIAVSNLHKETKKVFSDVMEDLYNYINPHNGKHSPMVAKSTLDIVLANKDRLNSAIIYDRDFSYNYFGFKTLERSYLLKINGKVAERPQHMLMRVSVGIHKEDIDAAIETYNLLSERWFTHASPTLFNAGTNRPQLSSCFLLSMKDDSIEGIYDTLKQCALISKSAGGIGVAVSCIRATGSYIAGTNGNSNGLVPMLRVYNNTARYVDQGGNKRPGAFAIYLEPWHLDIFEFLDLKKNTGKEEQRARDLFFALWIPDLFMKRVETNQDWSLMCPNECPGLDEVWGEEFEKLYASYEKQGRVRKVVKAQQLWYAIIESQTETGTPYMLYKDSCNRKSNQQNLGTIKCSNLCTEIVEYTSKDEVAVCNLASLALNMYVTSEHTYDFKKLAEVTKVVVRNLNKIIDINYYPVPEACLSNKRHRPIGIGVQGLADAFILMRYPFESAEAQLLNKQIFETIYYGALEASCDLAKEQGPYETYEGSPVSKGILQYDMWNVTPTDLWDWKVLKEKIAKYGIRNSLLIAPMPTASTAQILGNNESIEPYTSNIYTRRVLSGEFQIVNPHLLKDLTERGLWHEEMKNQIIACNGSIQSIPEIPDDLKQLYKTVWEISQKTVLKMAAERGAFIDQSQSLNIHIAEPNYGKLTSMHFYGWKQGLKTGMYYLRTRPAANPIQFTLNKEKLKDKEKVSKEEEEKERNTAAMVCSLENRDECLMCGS
In words: pull-down; in vitro binding assay: purified biotin-His-tagged R1 bound to streptavidin beads, HA-tagged MCM from an in vitro transcription/translation reaction; only the target purified.

B1: hemagglutinin(HA)-tagged MCM6 (protein, UniProt Q14566 1-821)
chain: MDLAAAAEPGAGSQHLEVRDEVAEKCQKLFLDFLEEFQSSDGEIKYLQLAEELIRPERNTLVVSFVDLEQFNQQLSTTIQEEFYRVYPYLCRALKTFVKDRKEIPLAKDFYVAFQDLPTRHKIRELTSSRIGLLTRISGQVVRTHPVHPELVSGTFLCLDCQTVIRDVEQQFKYTQPNICRNPVCANRRRFLLDTNKSRFVDFQKVRIQETQAELPRGSIPRSLEVILRAEAVESAQAGDKCDFTGTLIVVPDVSKLSTPGARAETNSRVSGVDGYETEGIRGLRALGVRDLSYRLVFLACCVAPTNPRFGGKELRDEEQTAESIKNQMTVKEWEKVFEMSQDKNLYHNLCTSLFPTIHGNDEVKRGVLLMLFGGVPKTTGEGTSLRGDINVCIVGDPSTAKSQFLKHVEEFSPRAVYTSGKASSAAGLTAAVVRDEESHEFVIEAGALMLADNGVCCIDEFDKMDVRDQVAIHEAMEQQTISITKAGVKATLNARTSILAAANPISGHYDRSKSLKQNINLSAPIMSRFDLFFILVDECNEVTDYAIARRIVDLHSRIEESIDRVYSLDDIRRYLLFARQFKPKISKESEDFIVEQYKHLRQRDGSGVTKSSWRITVRQLESMIRLSEAMARMHCCDEVQPKHVKEAFRLLNKSIIRVETPDVNLDQEEEIQMEVDEGAGGINGHADSPAPVNGINGYNEDINQESAPKASLRLGFSEYCRISNLIVLHLRKVEEEEDESALKRSELVNWYLKEIESEIDSEEELINKKRIIEKVIHRLTHYDHVLIELTQAGLKGSTEGSESYEEDPYLVVNPNYLLED
Take B1: the binding result was “no binding”.
